Measurements: publication PMC10070477
No constants are given. Whether binding was seen depends on the method and setting. Binding seen in cells or lysates may run through a third protein. A yes stands for co-enrichment or nearness to the bait. Other partners may have been found.

The chains behind the UniProt entries cited, without tags or fusion partners.
UniProt Q9BSK0: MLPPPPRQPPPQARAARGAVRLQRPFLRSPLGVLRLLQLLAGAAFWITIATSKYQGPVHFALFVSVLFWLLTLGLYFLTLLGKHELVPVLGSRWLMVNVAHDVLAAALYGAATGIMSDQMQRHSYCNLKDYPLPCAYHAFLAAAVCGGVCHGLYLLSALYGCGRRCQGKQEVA
UniProt Q16531: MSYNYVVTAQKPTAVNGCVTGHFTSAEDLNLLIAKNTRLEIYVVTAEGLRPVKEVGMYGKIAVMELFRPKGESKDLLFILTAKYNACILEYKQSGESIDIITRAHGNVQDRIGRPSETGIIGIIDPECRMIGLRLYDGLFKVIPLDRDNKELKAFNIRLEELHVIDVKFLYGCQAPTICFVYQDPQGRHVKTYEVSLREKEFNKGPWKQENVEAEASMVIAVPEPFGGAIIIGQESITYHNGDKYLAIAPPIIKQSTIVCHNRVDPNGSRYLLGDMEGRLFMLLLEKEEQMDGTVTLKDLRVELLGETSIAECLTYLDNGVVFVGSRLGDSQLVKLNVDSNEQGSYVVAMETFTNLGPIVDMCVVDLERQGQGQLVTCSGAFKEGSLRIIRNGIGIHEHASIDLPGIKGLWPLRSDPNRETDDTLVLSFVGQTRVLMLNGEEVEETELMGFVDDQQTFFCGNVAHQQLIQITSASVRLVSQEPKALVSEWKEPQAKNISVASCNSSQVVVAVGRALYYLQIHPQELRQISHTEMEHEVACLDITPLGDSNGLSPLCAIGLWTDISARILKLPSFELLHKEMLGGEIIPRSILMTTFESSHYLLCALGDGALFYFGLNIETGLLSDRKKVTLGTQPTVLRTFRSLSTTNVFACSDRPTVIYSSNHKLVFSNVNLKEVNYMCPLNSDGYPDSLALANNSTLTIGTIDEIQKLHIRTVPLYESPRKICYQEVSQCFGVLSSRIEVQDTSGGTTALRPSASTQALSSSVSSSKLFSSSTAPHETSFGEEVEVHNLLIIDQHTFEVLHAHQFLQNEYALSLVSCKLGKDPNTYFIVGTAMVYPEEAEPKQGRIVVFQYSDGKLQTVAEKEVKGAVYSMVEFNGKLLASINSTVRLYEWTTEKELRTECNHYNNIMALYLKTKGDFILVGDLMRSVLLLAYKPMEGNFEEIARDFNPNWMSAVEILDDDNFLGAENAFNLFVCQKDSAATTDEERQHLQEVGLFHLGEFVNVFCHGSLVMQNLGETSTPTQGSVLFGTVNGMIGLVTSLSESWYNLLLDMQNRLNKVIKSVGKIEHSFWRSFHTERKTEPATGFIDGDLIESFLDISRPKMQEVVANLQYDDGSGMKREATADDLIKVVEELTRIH
UniProt P15559: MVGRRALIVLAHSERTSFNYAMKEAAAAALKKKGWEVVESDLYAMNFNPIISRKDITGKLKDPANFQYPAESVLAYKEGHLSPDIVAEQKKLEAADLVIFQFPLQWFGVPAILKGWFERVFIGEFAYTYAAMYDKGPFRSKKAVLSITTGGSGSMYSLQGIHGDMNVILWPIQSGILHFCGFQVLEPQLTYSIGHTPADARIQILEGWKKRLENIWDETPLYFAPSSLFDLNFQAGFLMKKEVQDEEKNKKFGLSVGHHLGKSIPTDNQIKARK
UniProt P11940: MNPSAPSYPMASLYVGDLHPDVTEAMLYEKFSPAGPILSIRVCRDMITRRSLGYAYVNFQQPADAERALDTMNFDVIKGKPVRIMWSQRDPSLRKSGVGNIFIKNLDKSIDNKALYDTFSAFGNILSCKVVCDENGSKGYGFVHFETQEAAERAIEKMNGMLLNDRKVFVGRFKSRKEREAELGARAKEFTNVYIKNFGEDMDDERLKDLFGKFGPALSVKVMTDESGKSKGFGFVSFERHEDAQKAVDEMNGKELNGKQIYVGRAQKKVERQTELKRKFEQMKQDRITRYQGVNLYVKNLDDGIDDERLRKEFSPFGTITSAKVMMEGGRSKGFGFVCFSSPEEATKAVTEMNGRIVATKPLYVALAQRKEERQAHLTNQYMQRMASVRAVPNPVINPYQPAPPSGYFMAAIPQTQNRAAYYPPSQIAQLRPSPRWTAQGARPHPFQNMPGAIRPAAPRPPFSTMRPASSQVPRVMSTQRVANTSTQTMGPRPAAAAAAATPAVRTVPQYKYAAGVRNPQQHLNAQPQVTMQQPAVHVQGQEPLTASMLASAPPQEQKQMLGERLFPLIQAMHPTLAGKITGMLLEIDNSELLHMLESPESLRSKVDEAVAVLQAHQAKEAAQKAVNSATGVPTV
UniProt Q7Z2W4: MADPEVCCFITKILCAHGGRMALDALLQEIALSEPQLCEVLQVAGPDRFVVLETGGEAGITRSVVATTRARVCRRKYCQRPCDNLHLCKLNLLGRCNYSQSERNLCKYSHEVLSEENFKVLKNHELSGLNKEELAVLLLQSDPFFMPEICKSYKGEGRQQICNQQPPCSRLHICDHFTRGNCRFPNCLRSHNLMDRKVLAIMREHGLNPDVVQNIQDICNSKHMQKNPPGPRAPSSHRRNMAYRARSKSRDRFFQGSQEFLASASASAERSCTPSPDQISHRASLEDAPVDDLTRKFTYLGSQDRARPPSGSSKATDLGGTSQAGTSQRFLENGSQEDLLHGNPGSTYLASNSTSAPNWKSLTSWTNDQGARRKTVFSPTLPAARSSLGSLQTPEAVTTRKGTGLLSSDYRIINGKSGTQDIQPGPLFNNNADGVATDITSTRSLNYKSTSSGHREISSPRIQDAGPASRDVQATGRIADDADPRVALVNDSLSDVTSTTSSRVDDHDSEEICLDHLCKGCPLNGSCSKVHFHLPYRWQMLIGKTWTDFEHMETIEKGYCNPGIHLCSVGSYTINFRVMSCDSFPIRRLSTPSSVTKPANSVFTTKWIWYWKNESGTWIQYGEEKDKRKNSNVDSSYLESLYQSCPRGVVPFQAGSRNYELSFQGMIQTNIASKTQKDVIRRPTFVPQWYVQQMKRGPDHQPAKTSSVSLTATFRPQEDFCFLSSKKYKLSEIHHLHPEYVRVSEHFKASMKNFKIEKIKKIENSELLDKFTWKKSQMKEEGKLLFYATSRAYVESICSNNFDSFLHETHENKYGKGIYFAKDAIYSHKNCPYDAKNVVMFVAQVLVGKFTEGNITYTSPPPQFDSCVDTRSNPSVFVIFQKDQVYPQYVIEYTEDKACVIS
UniProt Q99497: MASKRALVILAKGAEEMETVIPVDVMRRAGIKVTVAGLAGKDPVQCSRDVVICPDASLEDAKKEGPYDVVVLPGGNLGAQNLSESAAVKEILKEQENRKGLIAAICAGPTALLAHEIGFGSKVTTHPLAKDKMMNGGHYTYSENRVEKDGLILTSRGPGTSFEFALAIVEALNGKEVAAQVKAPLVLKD
UniProt P09874: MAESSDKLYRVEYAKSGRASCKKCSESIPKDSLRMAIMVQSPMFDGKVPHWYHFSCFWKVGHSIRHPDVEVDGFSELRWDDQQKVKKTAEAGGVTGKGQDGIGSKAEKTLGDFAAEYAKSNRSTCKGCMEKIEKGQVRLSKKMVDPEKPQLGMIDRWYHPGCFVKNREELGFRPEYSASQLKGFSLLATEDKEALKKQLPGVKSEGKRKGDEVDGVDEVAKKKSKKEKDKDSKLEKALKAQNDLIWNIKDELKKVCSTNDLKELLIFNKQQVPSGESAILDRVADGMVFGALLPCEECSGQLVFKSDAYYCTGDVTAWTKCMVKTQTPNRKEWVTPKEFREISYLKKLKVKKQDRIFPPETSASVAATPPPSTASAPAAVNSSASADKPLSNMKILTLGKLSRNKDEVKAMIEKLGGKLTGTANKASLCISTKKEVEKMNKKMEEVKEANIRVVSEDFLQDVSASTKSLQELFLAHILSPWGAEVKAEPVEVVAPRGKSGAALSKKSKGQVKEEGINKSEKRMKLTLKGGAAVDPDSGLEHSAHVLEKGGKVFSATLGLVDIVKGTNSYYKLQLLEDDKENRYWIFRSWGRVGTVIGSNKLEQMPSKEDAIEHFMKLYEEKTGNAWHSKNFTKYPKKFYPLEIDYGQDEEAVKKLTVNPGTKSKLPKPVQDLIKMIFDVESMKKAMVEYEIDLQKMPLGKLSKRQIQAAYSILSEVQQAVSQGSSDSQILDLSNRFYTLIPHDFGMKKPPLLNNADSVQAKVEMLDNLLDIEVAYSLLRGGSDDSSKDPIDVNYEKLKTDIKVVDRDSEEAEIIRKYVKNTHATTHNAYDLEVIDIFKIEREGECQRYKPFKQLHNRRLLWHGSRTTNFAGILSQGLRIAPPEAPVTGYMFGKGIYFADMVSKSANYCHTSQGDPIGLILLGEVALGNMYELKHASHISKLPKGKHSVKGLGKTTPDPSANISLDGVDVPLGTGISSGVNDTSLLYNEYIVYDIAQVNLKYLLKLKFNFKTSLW

biological target: MARVELD1-Flag (UniProt Q9BSK0); assay: affinity purification with mass spectrometry; HeLa transfected with MARVELD1-Flag or pcDNA3.1, 8 mM hydroxyurea or DMSO for 24 h; IP with anti-DYKDDDDK magnetic agarose, washed five times with PBS, SDS-PAGE, LC-MS/MS; ratio over control of more than 2

binding	Molecule
binds	DDB1 (from UniProt Q16531 1-1140)
binds	NQO1 (from UniProt P15559 1-274)
binds	PABPC1 (from UniProt P11940 1-636)
binds	ZC3HAV1 (from UniProt Q7Z2W4 1-902)

Further lines, the molecule ahead of its results:

Molecule	binding
PARK7 (from UniProt Q99497 1-189)	binds
Poly(ADP-ribose) polymerase 1 (PARP1) (from UniProt P09874 1-1014)	binds

biological target: MARVELD1-Flag (UniProt Q9BSK0); assay: as above; remark: another data set of the same source

binding	Molecule
binds	MCM subunit 3 (protein, UniProt P25205 1-808) MAGTVVLDDVELREAQRDYLDFLDDEEDQGIYQSKVRELISDNQYRLIVNVNDLRRKNEKRANRLLNNAFEELVAFQRALKDFVASIDATYAKQYEEFYVGLEGSFGSKHVSPRTLTSCFLSCVVCVEGIVTKCSLVRPKVVRSVHYCPATKKTIERRYSDLTTLVAFPSSSVYPTKDEENNPLETEYGLSVYKDHQTITIQEMPEKAPAGQLPRSVDVILDDDLVDKAKPGDRVQVVGTYRCLPGKKGGYTSGTFRTVLIACNVKQMSKDAQPSFSAEDIAKIKKFSKTRSKDIFDQLAKSLAPSIHGHDYVKKAILCLLLGGVERDLENGSHIRGDINILLIGDPSVAKSQLLRYVLCTAPRAIPTTGRGSSGVGLTAAVTTDQETGERRLEAGAMVLADRGVVCIDEFDKMSDMDRTAIHEVMEQGRVTIAKAGIHARLNARCSVLAAANPVYGRYDQYKTPMENIGLQDSLLSRFDLLFIMLDQMDPEQDREISDHVLRMHRYRAPGEQDGDAMPLGSAVDILATDDPNFSQEDQQDTQIYEKHDNLLHGTKKKKEKMVSAAFMKKYIHVAKIIKPVLTQESATYIAEEYSRLRSQDSMSSDTARTSPVTARTLETLIRLATAHAKARMSKTVDLQDAEEAVELVQYAYFKKVLEKEKKRKKRSEDESETEDEEEKSQEDQEQKRKRRKTRQPDAKDGDSYDPYDFSDTEEEMPQVHTPKTADSQETKESQKVELSESRLKAFKVALLDVFREAHAQSIGMNRLTESINRDSEEPFSSVEIQAALSKMQDDNQVMVSEGIIFLI
binds	MCM subunit 5 (protein, UniProt P33992 1-734) MSGFDDPGIFYSDSFGGDAQADEGQARKSQLQRRFKEFLRQYRVGTDRTGFTFKYRDELKRHYNLGEYWIEVEMEDLASFDEDLADYLYKQPAEHLQLLEEAAKEVADEVTRPRPSGEEVLQDIQVMLKSDASPSSIRSLKSDMMSHLVKIPGIIIAASAVRAKATRISIQCRSCRNTLTNIAMRPGLEGYALPRKCNTDQAGRPKCPLDPYFIMPDKCKCVDFQTLKLQELPDAVPHGEMPRHMQLYCDRYLCDKVVPGNRVTIMGIYSIKKFGLTTSRGRDRVGVGIRSSYIRVLGIQVDTDGSGRSFAGAVSPQEEEEFRRLAALPNVYEVISKSIAPSIFGGTDMKKAIACLLFGGSRKRLPDGLTRRGDINLLMLGDPGTAKSQLLKFVEKCSPIGVYTSGKGSSAAGLTASVMRDPSSRNFIMEGGAMVLADGGVVCIDEFDKMREDDRVAIHEAMEQQTISIAKAGITTTLNSRCSVLAAANSVFGRWDETKGEDNIDFMPTILSRFDMIFIVKDEHNEERDVMLAKHVITLHVSALTQTQAVEGEIDLAKLKKFIAYCRVKCGPRLSAEAAEKLKNRYIIMRSGARQHERDSDRRSSIPITVRQLEAIVRIAEALSKMKLQPFATEADVEEALRLFQVSTLDAALSGTLSGVEGFTSQEDQEMLSRIEKQLKRRFAIGSQVSEHSIIKDFTKQKYPEHAIHKVLQLMLRRGEIQHRMQRKVLYRLK

More lines, now with the values behind:

Molecule	binding
IDH3a (protein, UniProt P50213 28-366) TGGVQTVTLIPGDGIGPEISAAVMKIFDAAKAPIQWEERNVTAIQGPGGKWMIPSEAKESMDKNKMGLKGPLKTPIAAGHPSMNLLLRKTFDLYANVRPCVSIEGYKTPYTDVNIVTIRENTEGEYSGIEHVIVDGVVQSIKLITEGASKRIAEFAFEYARNNHRSNVTAVHKANIMRMSDGLFLQKCREVAESCKDIKFNEMYLDTVCLNMVQDPSQFDVLVMPNLYGDILSDLCAGLIGGLGVTPSGNIGANGVAIFESVHGTAPDIAGKDMANPTALLLSAVMMLRHMGLFDHAARIEAACFATIKDGKSLTKDLGGNAKCSDFTEEICRRVKDLD	binds
MCM subunit 6 (protein, UniProt Q14566 1-821) MDLAAAAEPGAGSQHLEVRDEVAEKCQKLFLDFLEEFQSSDGEIKYLQLAEELIRPERNTLVVSFVDLEQFNQQLSTTIQEEFYRVYPYLCRALKTFVKDRKEIPLAKDFYVAFQDLPTRHKIRELTSSRIGLLTRISGQVVRTHPVHPELVSGTFLCLDCQTVIRDVEQQFKYTQPNICRNPVCANRRRFLLDTNKSRFVDFQKVRIQETQAELPRGSIPRSLEVILRAEAVESAQAGDKCDFTGTLIVVPDVSKLSTPGARAETNSRVSGVDGYETEGIRGLRALGVRDLSYRLVFLACCVAPTNPRFGGKELRDEEQTAESIKNQMTVKEWEKVFEMSQDKNLYHNLCTSLFPTIHGNDEVKRGVLLMLFGGVPKTTGEGTSLRGDINVCIVGDPSTAKSQFLKHVEEFSPRAVYTSGKASSAAGLTAAVVRDEESHEFVIEAGALMLADNGVCCIDEFDKMDVRDQVAIHEAMEQQTISITKAGVKATLNARTSILAAANPISGHYDRSKSLKQNINLSAPIMSRFDLFFILVDECNEVTDYAIARRIVDLHSRIEESIDRVYSLDDIRRYLLFARQFKPKISKESEDFIVEQYKHLRQRDGSGVTKSSWRITVRQLESMIRLSEAMARMHCCDEVQPKHVKEAFRLLNKSIIRVETPDVNLDQEEEIQMEVDEGAGGINGHADSPAPVNGINGYNEDINQESAPKASLRLGFSEYCRISNLIVLHLRKVEEEEDESALKRSELVNWYLKEIESEIDSEEELINKKRIIEKVIHRLTHYDHVLIELTQAGLKGSTEGSESYEEDPYLVVNPNYLLED	binds
